Test results reported in the supplement of paper PMC12889115.
This is one part of the list. Values are raw readings; no control value is given beside them.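 Primary screen: polymyxin B was added at a level permeabilizing Salmonella outer membranes while sparing inner membranes. DMSO wells, both with and without polymyxin B, established maximum growth. Plate-to-plate variation meant each plate was ranked on its own, and the lowest-OD600 compounds were selected as hits.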

System: Salmonella enterica serovar Typhimurium SL1344
Assay: bacterial growth OD600 after 18 h with compound and polymyxin B; higher = more bacterial growth (less inhibition)
Conditions: 50 µM, Mueller-Hinton broth

Structure (SMILES) | bacterial growth OD600 (polymyxin B 1 µg/mL) | bacterial growth OD600 (polymyxin B 0.75 µg/mL)
O=C1CCC(C(=O)N2CCS(=O)(=O)CC2)CN1Cc1cccc(F)c1 (configuration not stated) | 1.19 | –
Cc1nc(N2CCC(C(=O)NCCOC(C)C)CC2)nc2cc(S(C)(=O)=O)ccc12 | – | 0.874
Cc1cccc(CN2CCCC(O)(CNC3CCCCC3)C2=O)c1 (configuration not stated) | – | 0.831
COc1cccc(CN2CCC(C(Cc3ccccc3F)N(C)C(=O)c3ccsc3)CC2)c1O (configuration not stated) | – | 0.688
COc1ccc(OC)c(CN2CCC3(CC2)CC3C(=O)N(C)CCOc2ccc(C)cc2)c1 (configuration not stated) | – | 0.822
COc1ccc(OC)c(-c2cc(Cl)c3c(c2)CC(CNC(=O)C(C)(C)C)O3)c1 (configuration not stated) | – | 0.005
O=C(Cn1c(=O)oc2ccccc21)NC1CCCN(CCCc2ccccc2)C1 (configuration not stated) | 1.18 | –
Cc1cc(C(=O)N2CCOc3ccc(CN4CCOCC4)cc3C2)c2cccc(C)c2n1 | – | 0.847
Cc1ccc2oc(C(=O)NCCc3nc4ccccc4[nH]3)c(C)c2c1 | 1.06 | –
CCN(Cc1ccncc1)C(=O)c1cc(COc2ccc3c(c2)OCO3)[nH]n1 | 0.866 | –
COc1ccc(CC2(CCC(=O)NCCCn3nnc4ccccc43)CCC(=O)N2)c(F)c1 (configuration not stated) | – | 0.91
CC1CCCN(C(=O)c2coc(COc3cccc(F)c3F)n2)C1 (configuration not stated) | 0.612 | –
COCC(=O)Nc1cnn(-c2cccc(C(=O)N(C)Cc3ccc(Oc4ccccc4)cc3)c2)c1 | – | 0.834
Cc1ncc2c(c1CNC(=O)c1ccccc1F)CCN(C(=O)Cc1ccc(F)c(F)c1)C2 | – | 0.797
CCc1cc(C(=O)NCc2nc(-c3ccc(NC(=O)c4ccc(COC)o4)cc3)oc2C)no1 | – | 0.66
Fc1cccc(CCC2CCCN(Cc3ncc[nH]3)C2)c1 (configuration not stated) | – | 0.758

2 compounds picked at random from those above, as already listed:
Structure (SMILES) | bacterial growth OD600 (polymyxin B 1 µg/mL) | bacterial growth OD600 (polymyxin B 0.75 µg/mL)
Cc1cc(C(=O)N2CCOc3ccc(CN4CCOCC4)cc3C2)c2cccc(C)c2n1 | – | 0.847
COc1ccc(OC)c(-c2cc(Cl)c3c(c2)CC(CNC(=O)C(C)(C)C)O3)c1 (configuration not stated) | – | 0.005

Next entries follow:

Structure (SMILES) | bacterial growth OD600 (polymyxin B 1 µg/mL) | bacterial growth OD600 (polymyxin B 0.75 µg/mL)
CCOc1ccc2nc(N3CCC(C(=O)N4CCN(C5CCCCC5)CC4)CC3)nc(C)c2c1 | – | 0.044
O=C(Nc1ccc(-c2cscn2)cc1)C1CCCN(Cc2cccc(O)c2)C1 (configuration not stated) | – | 0.693
O=C(CCC1CCN(C(=O)CSc2ccccc2)CC1)NCC1CCCO1 (configuration not stated) | 0.759 | –
O=C(CCC1CCN(C(=O)C2CC(=O)N(C3CC3)C2)CC1)Nc1ccc2c(c1)OCCO2 (configuration not stated) | 0.923 | –
O=C1CC(CC(=O)N2CCCCC2c2nccs2)(c2cccc(F)c2)C(=O)N1Cc1cccnc1 (configuration not stated) | – | 0.941
COc1ccc(CC2(CCC(=O)NCc3nccs3)CCC(=O)N2)c2ccccc12 (configuration not stated) | – | 0.822
CC(Cc1cccnc1)NC(=O)c1cc(COc2ccc(F)cc2F)on1 (configuration not stated) | 0.89 | –
CCCCNCc1ccccc1OCC(O)CN1CCc2ccccc2C1 (configuration not stated) | – | 0.79
COC(CNc1nc2nonc2nc1N1CCOCC1)c1cccs1 (configuration not stated) | 0.935 | –
Cc1cccnc1-c1cccc2c1OC(CNC(=O)CC1CC1)C2 (configuration not stated) | – | 0.839
Cn1c(CNc2nncc(-c3cccc(Cl)c3)n2)nc2ccccc21 | – | 0.006
COc1ccccc1OCC(=O)N1CCc2c(cnc(C)c2CNC(=O)Cc2ccsc2)C1 | – | 0.945
COc1cc(CN2CCN(Cc3cccc4nonc34)CC2CCO)cc(OC)c1 (configuration not stated) | 0.97 | –
CCc1ccc(CN(C)C(=O)C2CCC(=O)N(Cc3cccc(OC)c3)C2)nc1 (configuration not stated) | 0.815 | –
COc1ccc(CNC2CCCc3c2cnn3-c2ccccn2)c(C)c1C (configuration not stated) | – | 0.758
CCC(COC)NC(=O)c1sc2ncnc(N3CCCCCCC3)c2c1C (configuration not stated) | – | 0.759
